AC50 data for 40 molecules are collected here from PubChem BioAssay (NCATS).

The structures appear in SMILES notation. Several values for one entry are separate records, joined by “and”; a condition that tells them apart may be missing. Equal entries are not always repeated. Some of the results follow. Further columns of the screen follow, without active or inactive calls. Most of these compounds were active or inconclusive in the main read-out, so they are no random draw. Potencies come from curve fits of mixed quality, noted in brackets. Peptide text beside a SMILES is read from it.

The assay is described as follows: qHTS assay for small molecule antagonists of peroxisome proliferator-activated receptor gamma signaling (AID 588537). As to conditions: HEK293 PPARg-UAS-bla, beta-lactamase ratio, antagonist mode; measured here: W460 blue channel. The gist of the method: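 Inhibitors of agonist-stimulated UAS-bla reporter activity were sought in HEK293 cells; rosiglitazone (50 nM) defined full signal and DMSO baseline. Curves fitted to Hill model gave IC50 and efficacy.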
By AC50 is commonly meant the concentration giving half of the maximal activity seen. For `O=CCCCC=O`, the AC50 is 44.7 µM [rising, single point].
The value for `O=[N+]([O-])c1ccc(F)cc1F` was 50.1 µM [rising, single point].
The value for `O=C(Cl)c1cccc([N+](=O)[O-])c1` was 70.8 µM [rising, single point]; that for `COC(=O)[C@H](Cc1ccccc1)NC(=O)[C@@H](N)CC(=O)O` (H-Asp-Phe-OMe) was 10 µM [falling, full curve, poor fit]; that for `CCOc1ccc2nc(N)sc2c1` was 63.1 µM [rising, single point].
The same measure for `CC(C)=CCC/C(C)=C/C=O`: 50.1 µM [rising, single point] and 2.51 nM [falling, full curve, poor fit].
For the molecule `CCCCC(CC)CO` (stereo not given), the AC50 was 44.7 µM [rising, single point].
Consider `Cc1cc(-c2ccc(N=Nc3cc(S(=O)(=O)O)c4ccccc4c3N)c(C)c2)ccc1N=Nc1cc(S(=O)(=O)O)c2ccccc2c1N`, for which the AC50 was 44.7 µM [falling, partial curve].
The same measure for `COC(C)=O`: 50.1 µM [rising, single point].
On to `CC(C)C(C)(C)C(C)(C)C(C)(C)S`, for which the half-maximal activity concentration (AC50) was 0.00355 µM [falling, full curve, poor fit].
The value for `CSCCC=O` was 70.8 µM [rising, single point]; that for `CC(=O)CCc1ccccc1` was 50.1 µM [rising, single point]; that for `COc1ccc2nc(N)sc2c1` was 0.2 µM [falling, full curve, poor fit].
The same measure for `C=C[C@H]1CN2CC[C@H]1C[C@@H]2[C@@H](O)c1ccnc2ccc(OC)cc12`: 44.7 µM [rising, partial curve].
The same measure for `CCC=O`: 50.1 µM [rising, single point].
For `CC(C)O`, the half-maximal activity concentration (AC50) was 8.91 µM [falling, partial curve, poor fit].
The value for `Cc1ccc([N+](=O)[O-])c(N)c1` was 70.8 µM [rising, single point]; that for `O=Cc1ccc(C(=O)O)cc1` was 28.2 µM [rising, single point]; that for `O=C1OC(=O)c2ccccc21` was 50.1 µM [rising, single point].
The same measure for `CCCCCCCCCCCCCC(=O)O`: 50.1 µM [rising, single point].
The value for `CC1(C)CC(N=C=O)CC(C)(CN=C=O)C1` (stereo not given) was 50.1 µM [rising, single point].
For the molecule `CC1(C)CC(OC(=O)CCCCCCCCC(=O)OC2CC(C)(C)NC(C)(C)C2)CC(C)(C)N1`, the AC50 was 0.0126 µM [falling, full curve, poor fit].
Regarding `ICCc1ccccc1`, the AC50 was 63.1 µM [rising, single point].
Turning to `C=C[Si](OCCOC)(OCCOC)OCCOC`, the AC50 is 0.00112 µM [falling, full curve, poor fit].
The same measure for `CC(O)COC(C)(C)C` (stereo not given): 50.1 µM [rising, single point]; for `CCCCOCCOCCOC(C)=O`: 0.002 µM [falling, full curve, poor fit]; for `Cc1ccc(C)o1`: 50.1 µM [rising, single point].
The value for `O=[N+]([O-])c1cccc(Cl)c1Cl` was 56.2 µM [rising, single point]; that for `Cc1c(N)cccc1[N+](=O)[O-]` was 50.1 µM [falling, partial curve, poor fit].
Take `COc1ccc(CCC(=O)c2c(O)cc(O[C@@H]3O[C@H](CO)[C@@H](O)[C@H](O)[C@H]3O[C@@H]3O[C@@H](C)[C@H](O)[C@@H](O)[C@H]3O)cc2O)cc1O`: the AC50 is 63.1 µM [rising, single point].
The value for `C=CCc1ccc(O)c(OC)c1` was 70.8 µM [rising, single point]; that for `CCCCCCCCCCCCCCCC(=O)O` was 0.00316 µM [falling, full curve, poor fit].
The value for `CCCCCCCC/C=C\CCCCCCCC(=O)O` was 50.1 µM [rising, partial curve, poor fit]; that for `CCCCCCCCCCCCCCCCCCN` was 0.0316 µM [falling, full curve, poor fit].
The same measure for `O=C(Nc1ccccc1)Nc1ccccc1`: 44.7 µM [falling, partial curve, poor fit]; for `CCC(C)=O`: 50.1 µM [rising, single point].
With `CC1(C)S[C@@H]2[C@H](NC(=O)[C@H](N)c3ccccc3)C(=O)N2[C@H]1C(=O)O`, the AC50 is 50.1 µM [falling, single point].
The value for `C=CCOC(=O)CC(C)C` was 0.00112 µM [falling, full curve, poor fit]; that for `c1ccc2ncccc2c1` was 63.1 µM [rising, single point]; that for `CC(=O)OCc1ccco1` was 50.1 µM [rising, single point].
